Reference: patent publication US5523223A, “Ketoester reductase for conversion of keto acid esters to optically active hydroxy acid esters” (priority 1992, dated 1996)
At least one structure is not confirmed: it was looked up by name or label, or the drawing left a doubt.

System: KERed from Candida parapsilosis
Test: Reverse reaction with (R)- or (S)-hydroxy compounds (photometric proof of stereospecificity)
Type: biochemical
Conditions: for Activity in the oxidation reaction: 0.5 mM NAD
[1] = 35 mM hydroxy ester, TRIS-HCl pH 9, 56° C., 340 nm
[2] = 8 mM phenylethanol, TRIS-HCl pH 9, 340 nm

Row | SMILES | Activity in the oxidation reaction [1] | Stereospecificity of the enzyme (in words) | Activity in the oxidation reaction [2]
1 | COC(=O)C[C@@H](C)O [Composition I, (R)-hydroxybutyric acid methyl ester] | 7% | – | –
2 | COC(=O)C[C@H](C)O [Composition II, (S)-hydroxybutyric acid methyl ester] | 100% | highly specific | –
3 | C[C@@H](O)c1ccccc1 [Composition III, (R)-phenylethanol] | – | – | 1.1%
4 | C[C@H](O)c1ccccc1 [Composition IV, (S)-phenylethanol] | – | highly specific | 100%
